The values that follow come from patent US20250129167A1.

No constants are given. Whether binding was seen depends on the method and setting. Some entries that bind do so weakly or less than the wild type.

The target in one assay is Cyno PD-L1-Fc (cyno) (UniProt G7PSE7). Briefly: column 'Species cross-reactivity'.
The target of a further assay is Cyno PD-L2-Fc (cyno). Briefly: column 'Species cross-reactivity'.

B1: ADI-20225 (antibody, V domains shown)
VH: QVQLVQSGAEVKKPGASVKVSCKASGGTFRSYAIQWVRQAPGQGLEWMGWIIPGFGTANYAQKFQGRVTITADESTSTAYMELSSLRSEDTAVYYCARELSHGGLSYWGQGTLVTVSS
VL: DIQMTQSPSSVSASVGDRVTITCRASQGISSWLAWYQQKPGKAPKLLIYAASSLQSGVPSRFSGSGSGTDFTLTISSLQPEDFATYYCQQANSFPITFGGGTKVEIK
On to B1, for which, in the assay with Cyno PD-L1-Fc (cyno), the binding result is given as “binds”.

B2: ADI-20236 (antibody, V domains shown)
VH: QVQLVQSGAEVKKPGSSVKVSCKASGGTFSSHAISWVRQAPGQGLEWMGGIIPIFGWALYAQKFQGRVTITADESTSTAYMELSSLRSEDTAVYYCARPGDHRASHFDYWGQGTLVTVSS
VL: B1 VL
For the molecule B2, the binding result with Cyno PD-L2-Fc (cyno) is reported as “binds”.
